From patent US20240166591A1, “Pharmaceutical Products Based on Cannabinoid Acid Esters” (priority 2021, published 2024)
Some entries share one result that the patent states for a list of compounds.

Key:
Format in all cases: cell-based
SKMEL28 (melanoma line) = assay: MTT cytotoxicity assay, SKMEL28 cancer line; settings: 20% v/v O2, 10% FBS, 48 h or 72 h, read-out: concentration leading to cell death in 50% of cancer cells
Description: (§1) The cytotoxic activity of CBDA methyl esters, CBCA CBGA and THCA was studied by the in vitro MTT colorimetric process (Mosmann, T. et al. J. Immunol. Methods. 1983; 65: 55-63). This method, which is widely used to measure cellular metabolic activity as an indicator of cell viability, division and cytotoxicity, is based on the reduction of a yellow salt of tetrazole ((3-(4,5-dimethylthiazol-2-yl)-2). 5-diphenyltetrazolium bromide or MTT) in violet formazan crystals from metabolically active cells.
(§2) Briefly for this cytotoxicity test, the SK-BR-3 cancer cell line (human breast cancer cell line), the MCF-7 cancer cell line (human breast cancer cell line), and the A2058 cancer cell line […]) and the cancer line SKMEL28 (melanoma line). All cell lines were tested at 20% v/v O2, in the presence of 10% FBS after 48 h or 72 h of incubation.

[1] = system: SK-BR-3 cancer cell line (human breast cancer cell line); assay: MTT cytotoxicity assay, SK-BR-3 cancer cell line; settings: 20% v/v O2, 10% FBS, 48 h or 72 h, read-out: concentration leading to cell death in 50% of cancer cells
Description: as §1, §2

[2] = system: A2058 cancer cell line (melanoma); assay: MTT cytotoxicity assay, A2058 cancer cell line; settings: 20% v/v O2, 10% FBS, 48 h or 72 h, read-out: concentration leading to cell death in 50% of cancer cells
Description: as §1, §2

[3] = system: MCF-7 cancer cell line (human breast cancer cell line); assay: MTT cytotoxicity assay, MCF-7 cancer cell line; settings: MCF7, 20% v/v O2, 10% FBS, 48 h or 72 h, read-out: concentration leading to cell death in 50% of cancer cells
Description: as §1, §2

Measured: EC50

C=C(C)[C@@H]1CCC(C)=C[C@H]1c1c(O)cc(CCCCC)c(C(=O)OC)c1O [CBDA-Me, CBDA methyl ester]
< 40 µM: all assays above

CCCCCc1cc2c(c(O)c1C(=O)OC)C=CC(C)(CCC=C(C)C)O2 (stereo not shown) [CBCA-Me, CBCA methyl ester]
< 40 µM: all assays above

CCCCCc1cc(O)c(C/C=C(\C)CCC=C(C)C)c(O)c1C(=O)OC [CBGA-Me, CBGA methyl ester]
< 40 µM: all assays above

CCCCCc1cc2c(c(O)c1C(=O)OC)C1C=C(C)CCC1C(C)(C)O2 (stereo not shown) [THCA-Me, THCA methyl ester]
< 40 µM: all assays above
